## Primary screen of a compound library

Amino acid sequences for entries named in this document (tags omitted). Residues count along the entry.
UniProt A4I591, 1-473: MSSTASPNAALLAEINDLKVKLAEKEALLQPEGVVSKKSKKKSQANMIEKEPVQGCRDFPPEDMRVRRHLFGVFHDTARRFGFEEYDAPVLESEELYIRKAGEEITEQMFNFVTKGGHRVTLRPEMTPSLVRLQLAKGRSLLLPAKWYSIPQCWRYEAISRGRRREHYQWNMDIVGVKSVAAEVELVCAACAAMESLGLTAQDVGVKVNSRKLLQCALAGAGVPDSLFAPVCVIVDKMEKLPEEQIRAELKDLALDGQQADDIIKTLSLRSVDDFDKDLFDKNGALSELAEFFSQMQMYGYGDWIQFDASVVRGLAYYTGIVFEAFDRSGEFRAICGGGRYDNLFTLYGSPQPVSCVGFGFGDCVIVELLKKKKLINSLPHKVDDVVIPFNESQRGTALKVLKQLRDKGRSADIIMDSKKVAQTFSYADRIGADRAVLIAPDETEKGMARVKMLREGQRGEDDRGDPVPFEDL
UniProt P9WFT3, whole entry: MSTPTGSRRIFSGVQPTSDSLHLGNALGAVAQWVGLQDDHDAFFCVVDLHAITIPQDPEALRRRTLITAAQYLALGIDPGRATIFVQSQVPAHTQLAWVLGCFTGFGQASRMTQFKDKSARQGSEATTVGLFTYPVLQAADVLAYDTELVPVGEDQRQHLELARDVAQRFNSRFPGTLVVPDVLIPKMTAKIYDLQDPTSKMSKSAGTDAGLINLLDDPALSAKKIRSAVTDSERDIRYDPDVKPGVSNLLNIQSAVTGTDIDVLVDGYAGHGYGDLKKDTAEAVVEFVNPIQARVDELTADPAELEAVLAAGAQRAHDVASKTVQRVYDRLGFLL
UniProt P9WNZ1, whole entry: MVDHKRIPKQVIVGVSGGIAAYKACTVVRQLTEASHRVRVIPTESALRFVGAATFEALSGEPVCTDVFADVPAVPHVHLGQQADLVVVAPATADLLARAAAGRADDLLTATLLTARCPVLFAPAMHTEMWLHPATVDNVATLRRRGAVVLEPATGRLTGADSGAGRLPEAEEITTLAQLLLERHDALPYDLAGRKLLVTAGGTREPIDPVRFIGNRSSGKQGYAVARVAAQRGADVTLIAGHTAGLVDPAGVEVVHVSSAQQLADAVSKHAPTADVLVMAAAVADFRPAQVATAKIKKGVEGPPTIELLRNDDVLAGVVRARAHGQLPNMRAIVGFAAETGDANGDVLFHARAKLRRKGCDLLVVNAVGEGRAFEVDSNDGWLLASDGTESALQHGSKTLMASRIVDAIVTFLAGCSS

Source: ChEMBL document CHEMBL3988442, “University of Dundee, Small-Polar-MMV Screening Library” (2021).

A: 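Histidine-tRNA ligase, Leishmania infantum (UniProt A4I591). Enzyme assay of histidyl-tRNA synthetase; the read-out is not stated. Tested at 30 µM. The record gives no direction; compounds that gave an IC50 in retests scored well above the rest, so higher reads as stronger inhibition. The assay is labelled LdHisRS but filed under L. infantum. Size under these conditions: about 69,000 compounds, about 410 of them at 50% or above in at least one test.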
B: 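Tryptophan-tRNA ligase, Mycobacterium tuberculosis (UniProt P9WFT3). Enzyme assay of tryptophanyl-tRNA synthetase; the read-out is not stated. Tested at 10 µM. Higher most likely means stronger inhibition; the record gives no direction and few retests gave an IC50. About 65,000 compounds were tested under these conditions; 0.098% (about 64) showed 50% or more at least once.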
C: 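Assay of Toxoplasma gondii numbers, read through their beta-galactosidase reporter with a colour substrate. Concentration: 10 µM. Higher reads as fewer parasites (inferred from which compounds were picked for retests). Size under these conditions: about 67,000 compounds, about 260 of them at 50% or above in at least one test.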
D: 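Coenzyme A biosynthesis protein CoaBC, Mycobacterium tuberculosis (UniProt P9WNZ1). Enzyme assay of CoaBC with a phosphate dye (Biomol Green) read at 650 nm. Compounds at 30 µM. Direction is inferred from only a few compounds that gave an IC50; most scored high, so higher reads as stronger inhibition. Most strong results did not repeat in a second test. About 67,000 compounds were tested under these conditions; 0.06% (about 40) showed 50% or more at least once.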

Each number is a percent effect as filed.
The controls that fix the scale are not given in the record; negative values are as filed.
The compounds are a random part of those screened.
A dash means the value is not listed here; it may have been measured.

* Cc1ccc(C(=O)NS(=O)(=O)c2ccccc2Br)c(=O)[nH]1 | A: 7.273%; B: -3.601%; C: -14.07%; D: 6.633%
* O=C(NCc1cccnc1)[C@H]1CC[C@@H]2[C@@H](CCN2c2ncccn2)O1 | A: 7%; B: -4.625%; D: 1.854%
* CC(C)Nc1nc(O)cc(C2CC(=O)N(Cc3ccccn3)C2)n1 (stereo not drawn) | A: 11.72%; B: -5.804%; D: -4.326%
* COc1ccc2c(c1)CC(NCc1cccc(CO)c1)CC2 (stereo not drawn) | A: 15.38%; B: -4.383%; C: 0.3969%; D: 7.2%
* COCCc1noc(-c2ccc(-c3ccc(N)nc3)nc2)n1 | A: 12.68%; B: 2.129%; C: -12.7%; D: 5.95%
* Cc1cccc(CN2CCn3c(COc4ncccn4)nnc3C2)n1 | A: 14.55%; B: 1.744%; C: 6.124%; D: 1.681%
* NC(=O)Nc1cccc(CNC(=O)CCCOCc2ccccc2)c1 | A: 9.524%; B: -1.874%; C: 0.885%; D: -2.269%
* CC(NC(=O)NCC(F)(F)F)c1nncn1C (stereo not drawn) | A: 12.39%; B: 2.437%; C: 11.61%; D: 13.89%
* Cc1noc(C)c1CN(C)Cc1csc(-c2ccc(F)cc2)n1 | A: 6.494%; B: -4.751%; C: -1.299%; D: 4.114%
* CCCc1nc(C(C)(C)NC(=O)C2CC(=O)N(CCOC)C2)no1 (stereo not drawn) | A: 18.18%; B: -6.08%; C: 4.18%; D: 6.633%
* Cn1ccnc1CN1CCC2(CC(=O)N(c3ccsc3)C2)C1 (stereo not drawn) | A: 3%; B: -7.961%; D: 3.585%
* O=C(CC1CCCC1)NCCn1ccc(-c2ccncc2)n1 | A: 6.796%; B: -4.079%; C: -0.6652%; D: 5.45%
* O=C(O)C(F)(F)F.O=C(O)C(F)(F)F.c1cc(CN2CCC3(CC2)COC(COCC2CC2)C3)ccn1 (stereo not drawn) | C: -6.136%
* CN(Cc1ccncc1)C1CC2(CCN(C(=O)c3ccnnc3)CC2)C1 | A: 7.895%; B: -1.803%; C: -0.308%; D: -2.648%
* C(=C\c1ccc(CN2CCCC2)cn1)/c1ccccc1 | C: -8.831%
* CC(C)C(=O)N1CCN(Cc2csc(-c3ncccn3)n2)CC1 | A: 5.714%; B: -1.589%; C: 1.458%; D: -19.57%
* CS(=O)(=O)CCN(CCCO)C1CCc2ccccc21 (stereo not drawn) | A: 7.407%; B: 2.956%; C: -5.182%; D: -0.8963%
* O=C1CO[C@@H]2CN(C3CCOCC3)C[C@H]2N1Cc1ccncc1 | A: 11.7%; B: 2.061%; D: 4.039%
* CCOc1ccc(CC(=O)N2CCN(c3nccn3C)CC2)cc1.Cl | C: 0.1109%
* COCCC(=O)N1Cc2ccccc2OC2(CCOCC2)C1 | A: 7.246%; B: -5.667%; C: 9.643%; D: -13.4%
* Cc1ccc(CN2CCC3(CC2)CN(c2ccccc2)C(=O)CO3)o1.O=C(O)C(F)(F)F | C: 8.273%
* COCCCN(Cc1ccccc1Cl)C1CCS(=O)(=O)C1 (stereo not drawn) | A: -7.895%; B: -6.748%; C: 4.592%; D: -2.025%

The last 2 entries again:

compound,A,B,C,D
Cc1ccc(CN2CCC3(CC2)CN(c2ccccc2)C(=O)CO3)o1.O=C(O)C(F)(F)F,-,-,8.273%,-
COCCCN(Cc1ccccc1Cl)C1CCS(=O)(=O)C1 (stereo not drawn),-7.895%,-6.748%,4.592%,-2.025%